From doi:10.1101/356592 (bioRxiv, 2018) come the findings set out here.

Amino acid sequences for entries named in this document (tags omitted). A change or cut given only in a name is not applied to a line headed by its entry.
UniProt P25454: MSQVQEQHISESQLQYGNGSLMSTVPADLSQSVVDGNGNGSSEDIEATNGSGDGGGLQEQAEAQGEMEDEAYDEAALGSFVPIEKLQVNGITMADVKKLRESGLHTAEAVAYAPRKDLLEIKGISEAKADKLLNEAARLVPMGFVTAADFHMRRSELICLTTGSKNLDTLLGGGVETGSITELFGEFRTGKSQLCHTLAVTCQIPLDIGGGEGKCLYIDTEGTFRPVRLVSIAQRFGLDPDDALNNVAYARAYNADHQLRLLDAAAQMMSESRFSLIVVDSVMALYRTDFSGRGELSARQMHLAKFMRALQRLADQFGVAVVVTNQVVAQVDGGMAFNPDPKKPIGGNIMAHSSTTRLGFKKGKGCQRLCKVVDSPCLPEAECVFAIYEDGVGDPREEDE

The target in the assay is T1, His6-tagged Dmc1 (Saccharomyces cerevisiae, UniProt P25453 1-334).
T1 sequence (looked up): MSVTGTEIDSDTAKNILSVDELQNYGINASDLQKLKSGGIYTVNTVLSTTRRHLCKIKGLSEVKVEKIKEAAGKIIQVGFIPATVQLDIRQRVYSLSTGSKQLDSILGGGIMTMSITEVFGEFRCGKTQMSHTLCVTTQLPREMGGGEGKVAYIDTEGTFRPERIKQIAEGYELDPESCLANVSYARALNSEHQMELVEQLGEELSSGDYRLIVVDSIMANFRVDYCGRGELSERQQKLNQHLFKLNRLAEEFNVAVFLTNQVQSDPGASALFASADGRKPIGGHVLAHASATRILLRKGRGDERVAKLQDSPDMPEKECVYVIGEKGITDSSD
The experiment in a line: co-IP.

Results are given in words; binding and its absence hold for the method and conditions named. In cells and extracts the contact can be indirect. Binding calls can cover weak binding; strength is not graded here. Sequences can lack the tags named with a protein.

In the case of “His6-tagged Rad51-II3A (from UniProt P25454)”, the binding entry is recorded as “binds”.
